According to patent US20220204599A1:
Results are given in words; binding and its absence hold for the method and conditions named. Some binding calls cover weakened binding; strength is not graded here.

Amino acid sequences for entries named in this document (tags omitted). A change or cut given only in a name is not applied to a line headed by its entry.
UniProt Q96CG8: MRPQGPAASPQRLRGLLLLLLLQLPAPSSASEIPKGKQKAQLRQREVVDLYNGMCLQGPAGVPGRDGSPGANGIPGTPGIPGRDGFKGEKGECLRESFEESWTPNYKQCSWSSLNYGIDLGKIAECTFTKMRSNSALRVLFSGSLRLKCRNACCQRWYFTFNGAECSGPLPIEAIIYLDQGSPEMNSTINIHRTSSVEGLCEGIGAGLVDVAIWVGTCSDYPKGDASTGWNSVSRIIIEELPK

Experiments:
[1] = target: CTHRC1-Fc (Homo sapiens (Human)) (UniProt Q96CG8); assay: indirect ELISA, CTHRC1-Fc coated, HRP-labeled anti-mouse antibody
[2] = target: collagen triple helix repeat containing-1 (CTHRC1) protein (Homo sapiens (Human)) (UniProt Q96CG8); assay: indirect ELISA
[3] = target: collagen triple helix repeat containing-1 (CTHRC1) protein (Homo sapiens (Human)) (UniProt Q96CG8); assay: indirect ELISA, CTHRC1 coated, antibody at 0, 1 and 5 µg/mL, anti-human kappa light chain-HRP

B1: 4H5 anti-CTHRC1 mouse monoclonal antibody (antibody, V domains shown)
VH: EVQLQQSGPELVKPGASVKISCKASGYSFTDYIMLWVKQSHGKSLEWIGNINPYYGSTSYNLKFKGKATLTVDKSSSTAYMQLNSLTSEDSAVYYCARSGYGYDESAMDYWGQGTSVTVSS
VL: DVLMTQTPLSLPVNIGDQASISCKSTKSLLNSDGFTYLDWYLQKPGQSPQLLIYLVSNRFSGVPDRFSGSGSGTDFTLKISRVEAEDLGVYYCFQSNYLPLTFGSGTKLEIK
[1]
  binding: binds
[2]
  binding: binds

B2: cCMAb45 anti-CTHRC1 chimeric antibody (antibody, V domains shown)
VH: EVQLQQSGPELVKPGASVKISCKASGYSFTDYIMLWVKQSHGKSLEWIGNINPYYGSTSYNLKFKGKATLTVDKSSSTAYMQLNSLTSEDSAVYYCARSGYGYDESAMDYWGQGTSVTVSS
VL: DVLMTQTPLSLPVNIGDQASISCKSTKSLLNSDGFTYLDWYLQKPGQSPQLLIYLVSNRFSGVPDRFSGSGSGTDFTLKISRVEAEDLGVYYCFQSNYLPLTFGSGTKLEIK
[3]
  binding: binds
[2]
  binding: binds

B3: cCMAb96 anti-CTHRC1 chimeric antibody (antibody, V domains shown)
VH: QVQLQQPGSELVRPGASVKLSCKASGYTFTSYWMHWVKQRPGQGLEWIGNIYPSSGTTNYDEKFKNKATLTVDTSSTTAYMHLSSLTSEDSAVYYCTTESYWGQGTTLTVSS
VL: DIVMTQSPSSLSASLGDTITITCHASQNINVWLSWYQQKPGNIPKLLIYKASNLHTGVPSRFSGSGSGTGFTLTISSLQPEDIATYYCQQGQSYPLTFGGGTKLEIK
[3]
  binding: binds
[2]
  binding: binds

B4: 9E6 anti-CTHRC1 mouse monoclonal antibody (antibody, V domains shown)
VH: QVQLQQPGSELVRPGASVKLSCKASGYTFTSYWMHWVKQRPGQGLEWIGNIYPSSGTTNYDEKFKNKATLTVDTSSTTAYMHLSSLTSEDSAVYYCTTESYWGQGTTLTVSS
VL: DIVMTQSPSSLSASLGDTITITCHASQNINVWLSWYQQKPGNIPKLLIYKASNLHTGVPSRFSGSGSGTGFTLTISSLQPEDIATYYCQQGQSYPLTFGGGTKLEIK
[1]
  binding: binds
[2]
  binding: binds
